# Experimental data taken from the supplement of paper PMC12823440, “Inhibitors supercharge kinase turnover through native proteolytic circuits” (Nature, 2025).
# Chains of the proteins cited; added tags and fusions are not shown. Lines headed by an entry give the natural chain unless they say otherwise; changes in a name come on top.
# UniProt P22607, whole entry, looked up: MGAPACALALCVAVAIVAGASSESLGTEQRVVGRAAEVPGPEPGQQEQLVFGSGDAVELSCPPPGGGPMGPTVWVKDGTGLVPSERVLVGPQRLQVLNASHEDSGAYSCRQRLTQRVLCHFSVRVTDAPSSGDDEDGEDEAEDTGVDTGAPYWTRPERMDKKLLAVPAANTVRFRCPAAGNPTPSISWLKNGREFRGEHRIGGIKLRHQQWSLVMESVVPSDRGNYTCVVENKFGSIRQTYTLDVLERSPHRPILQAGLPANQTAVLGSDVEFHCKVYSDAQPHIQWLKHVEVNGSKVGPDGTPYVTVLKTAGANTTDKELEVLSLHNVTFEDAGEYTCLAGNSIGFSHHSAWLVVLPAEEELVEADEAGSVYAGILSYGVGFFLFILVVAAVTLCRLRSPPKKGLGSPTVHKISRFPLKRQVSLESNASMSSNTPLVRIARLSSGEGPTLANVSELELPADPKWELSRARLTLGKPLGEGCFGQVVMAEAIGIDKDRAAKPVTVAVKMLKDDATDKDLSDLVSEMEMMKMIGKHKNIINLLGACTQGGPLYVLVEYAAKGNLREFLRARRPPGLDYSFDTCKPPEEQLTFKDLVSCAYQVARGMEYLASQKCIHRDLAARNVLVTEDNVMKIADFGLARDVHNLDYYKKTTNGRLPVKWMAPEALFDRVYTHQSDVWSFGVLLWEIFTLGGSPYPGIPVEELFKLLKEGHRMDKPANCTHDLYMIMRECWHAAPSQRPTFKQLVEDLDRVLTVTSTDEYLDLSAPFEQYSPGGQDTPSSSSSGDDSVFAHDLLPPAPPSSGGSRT
# UniProt P15056, whole entry, looked up: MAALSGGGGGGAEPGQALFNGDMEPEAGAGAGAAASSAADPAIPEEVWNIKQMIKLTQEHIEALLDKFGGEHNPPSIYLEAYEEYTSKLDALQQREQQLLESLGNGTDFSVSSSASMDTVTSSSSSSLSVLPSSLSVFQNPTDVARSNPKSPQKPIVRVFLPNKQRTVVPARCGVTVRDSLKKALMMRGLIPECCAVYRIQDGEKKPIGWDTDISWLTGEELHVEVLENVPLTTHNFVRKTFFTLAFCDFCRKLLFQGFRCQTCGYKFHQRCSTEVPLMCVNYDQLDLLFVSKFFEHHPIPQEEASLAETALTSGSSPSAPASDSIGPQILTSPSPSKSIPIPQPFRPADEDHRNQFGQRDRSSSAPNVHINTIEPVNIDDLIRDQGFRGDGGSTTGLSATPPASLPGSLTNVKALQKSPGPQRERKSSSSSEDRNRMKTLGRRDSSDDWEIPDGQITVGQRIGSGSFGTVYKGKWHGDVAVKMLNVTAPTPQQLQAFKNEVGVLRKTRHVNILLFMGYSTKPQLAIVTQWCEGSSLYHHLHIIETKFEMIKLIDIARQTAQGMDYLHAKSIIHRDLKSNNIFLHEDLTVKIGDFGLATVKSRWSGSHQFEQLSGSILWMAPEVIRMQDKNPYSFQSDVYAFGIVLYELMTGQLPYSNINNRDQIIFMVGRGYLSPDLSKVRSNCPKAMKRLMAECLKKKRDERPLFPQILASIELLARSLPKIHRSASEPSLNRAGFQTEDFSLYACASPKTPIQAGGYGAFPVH
# UniProt P21860, whole entry: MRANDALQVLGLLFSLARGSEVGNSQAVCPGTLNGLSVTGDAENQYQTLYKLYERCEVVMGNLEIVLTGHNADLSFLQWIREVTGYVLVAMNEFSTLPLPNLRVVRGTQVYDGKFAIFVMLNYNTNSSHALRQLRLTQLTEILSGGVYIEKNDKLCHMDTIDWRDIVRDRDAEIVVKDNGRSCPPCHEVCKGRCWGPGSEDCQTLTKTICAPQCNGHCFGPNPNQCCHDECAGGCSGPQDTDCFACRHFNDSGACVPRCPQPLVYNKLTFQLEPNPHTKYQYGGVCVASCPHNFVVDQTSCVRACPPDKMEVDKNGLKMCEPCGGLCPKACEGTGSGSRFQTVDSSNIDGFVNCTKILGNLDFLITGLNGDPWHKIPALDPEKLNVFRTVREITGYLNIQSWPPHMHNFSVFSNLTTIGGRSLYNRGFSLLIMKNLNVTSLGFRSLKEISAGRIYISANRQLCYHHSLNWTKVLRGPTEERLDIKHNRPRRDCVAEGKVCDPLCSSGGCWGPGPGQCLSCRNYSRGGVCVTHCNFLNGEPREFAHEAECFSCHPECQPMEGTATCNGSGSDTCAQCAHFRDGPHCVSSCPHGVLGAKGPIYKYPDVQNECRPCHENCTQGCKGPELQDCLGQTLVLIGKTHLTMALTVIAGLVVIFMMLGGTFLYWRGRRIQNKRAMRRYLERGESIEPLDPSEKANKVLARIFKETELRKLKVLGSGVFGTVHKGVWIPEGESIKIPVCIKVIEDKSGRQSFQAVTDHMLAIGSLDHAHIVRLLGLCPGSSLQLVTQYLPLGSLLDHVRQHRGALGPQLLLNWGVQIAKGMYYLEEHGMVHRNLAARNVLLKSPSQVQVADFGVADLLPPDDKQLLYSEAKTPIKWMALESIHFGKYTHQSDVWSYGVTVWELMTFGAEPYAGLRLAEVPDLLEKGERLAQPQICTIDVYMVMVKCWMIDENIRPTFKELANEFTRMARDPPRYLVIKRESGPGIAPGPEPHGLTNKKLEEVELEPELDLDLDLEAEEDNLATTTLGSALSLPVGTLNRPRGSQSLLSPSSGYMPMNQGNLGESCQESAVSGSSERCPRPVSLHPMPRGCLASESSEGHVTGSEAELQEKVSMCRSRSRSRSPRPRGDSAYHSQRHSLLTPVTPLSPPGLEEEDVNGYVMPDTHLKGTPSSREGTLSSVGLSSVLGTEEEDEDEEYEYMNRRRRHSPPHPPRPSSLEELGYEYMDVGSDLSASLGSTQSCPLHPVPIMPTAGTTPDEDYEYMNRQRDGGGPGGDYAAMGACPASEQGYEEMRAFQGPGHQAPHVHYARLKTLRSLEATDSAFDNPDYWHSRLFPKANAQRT
# UniProt Q00535, whole entry, looked up: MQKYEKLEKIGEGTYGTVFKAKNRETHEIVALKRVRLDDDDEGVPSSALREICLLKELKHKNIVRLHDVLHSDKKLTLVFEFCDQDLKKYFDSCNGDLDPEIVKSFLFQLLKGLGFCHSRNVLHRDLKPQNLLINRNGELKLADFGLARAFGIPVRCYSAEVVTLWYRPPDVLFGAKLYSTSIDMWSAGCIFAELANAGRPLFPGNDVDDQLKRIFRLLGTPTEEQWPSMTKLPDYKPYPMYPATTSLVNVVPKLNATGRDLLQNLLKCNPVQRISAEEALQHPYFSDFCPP
# UniProt Q15303, whole entry R711C: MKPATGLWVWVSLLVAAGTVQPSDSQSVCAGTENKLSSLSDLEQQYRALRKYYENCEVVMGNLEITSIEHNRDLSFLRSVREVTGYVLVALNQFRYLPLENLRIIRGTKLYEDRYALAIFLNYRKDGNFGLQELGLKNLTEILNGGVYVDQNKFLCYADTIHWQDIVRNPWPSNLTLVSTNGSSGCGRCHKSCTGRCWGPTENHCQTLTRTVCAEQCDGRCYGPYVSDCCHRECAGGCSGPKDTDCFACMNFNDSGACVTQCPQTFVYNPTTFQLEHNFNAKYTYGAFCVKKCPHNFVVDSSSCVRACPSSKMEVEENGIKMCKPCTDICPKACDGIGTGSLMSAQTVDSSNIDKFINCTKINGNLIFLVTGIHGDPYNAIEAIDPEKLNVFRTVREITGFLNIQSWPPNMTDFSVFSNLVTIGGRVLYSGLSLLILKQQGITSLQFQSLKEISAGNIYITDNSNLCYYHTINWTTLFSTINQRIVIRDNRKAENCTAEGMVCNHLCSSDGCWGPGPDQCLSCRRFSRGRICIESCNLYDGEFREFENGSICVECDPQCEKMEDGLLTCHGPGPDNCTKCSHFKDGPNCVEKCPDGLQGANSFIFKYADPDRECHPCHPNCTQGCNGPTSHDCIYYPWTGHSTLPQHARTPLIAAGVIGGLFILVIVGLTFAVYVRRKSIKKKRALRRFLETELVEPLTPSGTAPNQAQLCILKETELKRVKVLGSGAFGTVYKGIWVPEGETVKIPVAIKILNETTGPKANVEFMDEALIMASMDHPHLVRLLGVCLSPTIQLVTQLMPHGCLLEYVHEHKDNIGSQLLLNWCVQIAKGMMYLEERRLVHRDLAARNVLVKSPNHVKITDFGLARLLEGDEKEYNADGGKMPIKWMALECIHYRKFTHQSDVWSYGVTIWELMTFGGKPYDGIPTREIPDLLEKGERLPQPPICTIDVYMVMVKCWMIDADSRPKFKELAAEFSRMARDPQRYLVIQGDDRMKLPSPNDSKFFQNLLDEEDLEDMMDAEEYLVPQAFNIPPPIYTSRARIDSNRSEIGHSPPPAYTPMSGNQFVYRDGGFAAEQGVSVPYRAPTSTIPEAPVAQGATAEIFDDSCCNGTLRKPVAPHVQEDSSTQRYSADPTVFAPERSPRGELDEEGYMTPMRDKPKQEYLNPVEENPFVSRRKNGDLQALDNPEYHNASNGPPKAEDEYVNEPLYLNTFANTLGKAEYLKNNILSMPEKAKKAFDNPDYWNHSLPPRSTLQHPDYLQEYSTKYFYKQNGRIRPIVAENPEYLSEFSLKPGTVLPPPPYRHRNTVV
# UniProt Q6PHR2: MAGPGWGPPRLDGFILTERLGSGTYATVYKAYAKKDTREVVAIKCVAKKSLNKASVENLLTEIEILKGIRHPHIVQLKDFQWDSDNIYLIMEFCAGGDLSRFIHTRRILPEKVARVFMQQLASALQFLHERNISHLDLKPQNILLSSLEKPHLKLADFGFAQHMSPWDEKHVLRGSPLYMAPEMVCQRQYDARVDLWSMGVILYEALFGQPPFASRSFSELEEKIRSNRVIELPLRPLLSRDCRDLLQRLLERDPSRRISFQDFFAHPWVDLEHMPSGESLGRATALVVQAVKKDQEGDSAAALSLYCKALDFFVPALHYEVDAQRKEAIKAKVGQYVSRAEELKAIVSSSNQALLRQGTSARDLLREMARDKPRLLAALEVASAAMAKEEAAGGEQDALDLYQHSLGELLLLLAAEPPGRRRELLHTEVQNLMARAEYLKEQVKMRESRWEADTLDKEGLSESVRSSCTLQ
# Some of the results follow. Hit calls seldom repeat between salt and free forms of one compound.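 Kinases were expressed as nanoluciferase fusions in K562 cells and luminescence was read every 4 h between 2 and 18 h as percent of control, DMSO set to 100% and a positive control to 0%. A time point counts as decreased when the signal drops significantly (2 sigma). The hit call is the authors' own, does not follow from the count of time points alone, and its rule is not shown.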
# Tests used:
# Test in all cases: number of time points (of 5) at which kinase-Nluc abundance scored as decreased, DMSO-normalised (count); higher = more persistent destabilization
# [1] = compound: C#Cc1cccc(Nc2ncnc3cc(OCCOC)c(OCCO)cc23)c1 [Desmethyl Erlotinib (hydrochloride)]; settings: 10 µM; K562; 2-18 h
# Desmethyl Erlotinib = compound: C#Cc1cccc(Nc2ncnc3cc(OCCOC)c(OCCO)cc23)c1 [Desmethyl Erlotinib]; settings: 10 µM; K562; 2-18 h
# [2] = compound: C#Cc1cccc(Nc2ncnc3cc(OCCOC)c(OCCOC)cc23)c1 [Erlotinib (Hydrochloride)]; settings: 10 µM; K562; 2-18 h
# Erlotinib = compound: C#Cc1cccc(Nc2ncnc3cc(OCCOC)c(OCCOC)cc23)c1 [Erlotinib]; settings: 10 µM; K562; 2-18 h
# Icotinib (Hydrochloride) = compound: C#Cc1cccc(Nc2ncnc3cc4c(cc23)OCCOCCOCCO4)c1 [Icotinib (Hydrochloride)]; settings: 10 µM; K562; 2-18 h
# Icotinib = compound: C#Cc1cccc(Nc2ncnc3cc4c(cc23)OCCOCCOCCO4)c1 [Icotinib]; settings: 10 µM; K562; 2-18 h
# [3] = compound: C=CC(=O)N1CCN(c2ncnc3c(F)c(-c4c(O)cccc4F)c(Cl)cc23)CC1; settings: K562, 2-18 h
# Mobocertinib (succinate) = compound: C=CC(=O)Nc1cc(Nc2ncc(C(=O)OC(C)C)c(-c3cn(C)c4ccccc34)n2)c(OC)cc1N(C)CCN(C)C [Mobocertinib (succinate)]; settings: 10 µM; K562; 2-18 h
# Mobocertinib = compound: C=CC(=O)Nc1cc(Nc2ncc(C(=O)OC(C)C)c(-c3cn(C)c4ccccc34)n2)c(OC)cc1N(C)CCN(C)C [Mobocertinib]; settings: 10 µM; K562; 2-18 h
# Osimertinib (dimesylate) = compound: C=CC(=O)Nc1cc(Nc2nccc(-c3cn(C)c4ccccc34)n2)c(OC)cc1N(C)CCN(C)C [Osimertinib (dimesylate)]; settings: 2.5 µM; K562; 2-18 h
# Osimertinib mesylate = compound: C=CC(=O)Nc1cc(Nc2nccc(-c3cn(C)c4ccccc34)n2)c(OC)cc1N(C)CCN(C)C [Osimertinib mesylate]; settings: 2.5 µM; K562; 2-18 h
# Osimertinib = compound: C=CC(=O)Nc1cc(Nc2nccc(-c3cn(C)c4ccccc34)n2)c(OC)cc1N(C)CCN(C)C [Osimertinib]; settings: 2.5 µM; K562; 2-18 h
# [4] = compound: C=CC(=O)Nc1cc(Nc2nccc(-c3cn(C4CC4)c4ccccc34)n2)c(OC)cc1N(C)CCN(C)C [Almonertinib (hydrochloride)]; settings: 2.5 µM; K562; 2-18 h
# Almonertinib = compound: C=CC(=O)Nc1cc(Nc2nccc(-c3cn(C4CC4)c4ccccc34)n2)c(OC)cc1N(C)CCN(C)C [Almonertinib]; settings: 2.5 µM; K562; 2-18 h
# AV-412 (free base) = compound: C=CC(=O)Nc1cc2c(Nc3ccc(F)c(Cl)c3)ncnc2cc1C#CC(C)(C)N1CCN(C)CC1 [AV-412 (free base)]; settings: 2.5 µM; K562; 2-18 h
# [5] = compound: C=CC(=O)Nc1cc2c(Nc3ccc(F)c(Cl)c3)ncnc2cc1C#CC(C)(C)N1CCN(C)CC1; settings: 2.5 µM; K562; 2-18 h
# [6] = compound: CC(=O)N[C@H](Cc1ccc(O)cc1)C(=O)N[C@H](CCCN=C(N)N)C(=O)N[C@H](Cc1ccccc1)C(N)=O; settings: 10 µM; K562; 2-18 h
# [7] = compound: CC(=O)Nc1cccc(-n2c(=O)n(C3CC3)c(=O)c3c(Nc4ccc(I)cc4F)n(C)c(=O)c(C)c32)c1 [Trametinib (DMSO solvate)]; settings: 10 µM; K562; 2-18 h
# (Z)-Guggulsterone = compound: C/C=C1\C(=O)C[C@H]2[C@@H]3CCC4=CC(=O)CC[C@]4(C)[C@H]3CC[C@]12C [(Z)-Guggulsterone]; settings: 10 µM; K562; 2-18 h
# Guggulsterone = compound: C/C=C1\C(=O)C[C@H]2[C@@H]3CCC4=CC(=O)CC[C@]4(C)[C@H]3CC[C@]12C [Guggulsterone]; settings: 10 µM; K562; 2-18 h
Target,number of time points [1],number of time points (Desmethyl Erlotinib),number of time points [2],number of time points (Erlotinib),number of time points (Icotinib (Hydrochloride)),number of time points (Icotinib),number of time points ([3]; 2.5 µM),number of time points ([3]; 10 µM),number of time points (Mobocertinib (succinate)),number of time points (Mobocertinib),number of time points (Osimertinib (dimesylate)),number of time points (Osimertinib mesylate),number of time points (Osimertinib),number of time points [4],number of time points (Almonertinib),number of time points (AV-412 (free base)),number of time points [5],number of time points [6],number of time points [7],number of time points ((Z)-Guggulsterone),number of time points (Guggulsterone)
FGFR3 (UniProt P22607),0,0,0,0,0,0,0,0,0,0,0,0,0,0,0,0,0,0,0,,
EGFR_L861Q (UniProt P00533),0,0,,,0,0,0,0,0,0,,,,0,0,0,0,0,0,0,0
BRAF (UniProt P15056),0,0,0,0,0,0,0,0,0,0,0,0,0,0,0,0,0,0,0,0,0
ERBB3 (UniProt P21860),0,0,0,0,0,2,0,0,0,0,0,0,0,0,0,0,0,0,2,0,0
CDK5 (UniProt Q00535),0,0,0,0,0,0,0,0,0,0,0,0,0,0,0,0,0,0,0,0,0
EGFR_L718V (UniProt P00533),0,0,,,0,0,0,0,0,0,,,,0,0,0,0,0,0,0,0
ERBB4_R711C (clone: ERBB4_mut) (UniProt Q15303),0,0,0,0,0,0,0,0,0,0,0,0,0,0,0,0,0,0,0,0,0
ULK3 (UniProt Q6PHR2),0,0,0,0,0,0,0,0,0,0,2,1,0,0,0,0,2,0,0,0,0
